Laboratory results: PMC9002759, “The Sunflower WRINKLED1 Transcription Factor Regulates Fatty Acid Biosynthesis Genes through an AW Box Binding Sequence with a Particular Base Bias”
A negative result means that nothing was seen under these conditions. Construct, isoform or probe ends are uncertain for at least one entry. Weaker means in comparison with the reference protein, sequence or condition of that experiment.

What follows are sequences tested against HaWRI1_DBD (6-His-TRX-WRI1_DBD) (Helianthus annuus (CAS-6 line)) (UniProt X2BZR1) (assay: EMSA). Details: 20 mM Tris-HCl pH 8.0, 250 mM NaCl, 2 mM MgCl2, 1% glycerol, 1 mM DTT, 1 mg/mL BSA, 30 min room temperature, gels at 4 °C; DIG EMSA plus 0.05 µg/µL polydIdC; recombinant protein; residues 51-229; protein details: N-terminal 6xHis-thioredoxin fusion; probe letters rebuilt from the primers and the genome.
“GGGGTTAGTTAGGGTATATGGGAAAAATGTGGTCACACTGATTGACACTCCAACGCTTTTCAGCTTAGGTTATATCGCCGATCAGTCGGAGCTTCCAAGACCAACACACAGTCTTCATATATCAATCACTTCAATTTCATTTACACAATTGCTCCTCTTCGTTACTCTCTCTCCTCATTTTCTCTCTCTAGAACGCTCATGGCTGCCGCAGCATCTGCTTCTTTCACCGGATCGGTTTTCAAATCCAACCGTATCTCAACTAACTCCGC (double strand) [KAR1 mut A/G]”: no binding. “GGTGGGTTACCGGGTTTTCCTCGGAATTGGTGGTGGACTCTGGTTACTCTTGGAGTACTCCGATTGTGTTCGAAGGATGCTCAGGATTGATTATGTTGGCCGTTAAAAAAAAAAAGTTGAAGGGGGTTCTATGGGCTTGAACACTACATGGATGTATTTTTCCTTTTTAGGTCAAGTTGCGTAGGCGTTTCCTCTACCGGTCGCCCGGTCTAGAACATAGAGCTGGCATATAGCTCA (double strand) [KASIII-17g (-277)]”: no binding. “GTAACCAGAGTCCACCACCAATTCCGAGGAAAACCCGGTAACCCACCGGCCGGTAGACACCACGATAAAATTACCGTTAAAACCCGTTTGGCTCAAGGATCGAACCTAGGTTTCCTTGTGTCTCCAATCATTGTCCACCAGTGCCTCACTCTGTACCAAATGGAAGTTGAACCTACATCTCCCAAAAGAAATGCAAGTCTGCCACTACTTGATCTAAAAATTATTGGCCCCTCTTCAACTATATATATAGGAGAAGGATCCGTTATGAAC (double strand) [KASIII-17g (-376/-342)]”: no binding. “GTAAGAGCATGAGTGGCTTGGCGAACGTGGTGTGGACGGAGACGAGTGTGTGGGCCCTGTGCCAGCCCAGTGAACGCCAAACGAGCACACAACAAGCGAAGTGGGGTGAAAAAATAAATTATCGCCCATAGTTTAATAGTAGTATCAGTAACCCCTGACCGGTTGATTTCTCGATGTCAAAATGAACCTAATATTTTACCTATAAATACCTAACACACTCTCATCGTCTCCTCCGCCGATTATTCTCGAATTCTTGTTATCAGATCAGATCATATCAGATCTATCC (double strand) [ACP2-14g (-65)]”: no binding. “GTATTGATTGTGTGGGTCGATGGTATTTTAGTGGCGAGTTGCAGGAGAATTGGGGCTTTGGTTGTAACGCCTGTTCGGCTACAGCGGTAGTGCATGGTAAGATCTGTGTTGACCAATGTGTATGCGACACGTGTTACTGGATTACACTTGGTTGATGGATTATTTGTCTACGTGGATGAATTTGAGTGGTTGATGTGTTTAGCTCTCTGTCTTGAACAATCGGTGCCGTTGGTGTAGTTGTGGTATAGGGTTCGGT (double strand) [βPDH-16g (-179)]”: binds. “GTGCAAATAGTAACAAACGCCCAAAGGGAACTTACAAAATATCAAGTATGTATCAGCCCAAGAAAAGAGCCCAAAAGAAACTTGCTGAACTCCCCCCAAGCGCTGAGGAAAATCAGTGACGACCACAGTCCAACAAACAGTCATTCTCCTTGCCATTGTTAACTCCGCCCCCTTCCGG (double strand) [LPD-10g (-98)]”: binds. “GTGTGTGAGGAGAGTGTGTGTTGGTGGCAGGGGTATATATTGTAAATGCGAGGGCATCGGGATATCCGCAACCTTTGGTGACGAGGGTTTTTAGTCACTATTAAGTTGTGACCAATAATAACGTGCCTTTCTTTTTCTTTTCTCTACACCCACTTTGTTAGGTACTTGGAGTTGGGTACTCATGTAATGTAA (double strand) [ACP1-7g (-126)]”: binds. “GTTGATATCGCCTAACATTTAACACTACTCTACTCTATATCTTCGGTTCCCTCGCCCCCACACCCATACAAGACTCCCCCACCATTGCAGTTCCAGTCTATCTCTTTTGCTTCTTCAATAATCAATACAAC (double strand) [BCCP-16g (-92)]”: no binding. “TCTTAGGGTGTAAGGGGTGCTCACCTAAGAGGTGAGTCCCTCTTACGCCCAATCAATCCTCGTGTGTCACGTCAACTCCTCTCTTAAACTTCTCTAACACCCTAAATTGATGGCGGCACTCCCCTCTATGATGACTTGGTTTTTATTAAAAAAAGAAAAAAGAAAAGTTTTGATTGGTCCACTCATCCTCTCTCCTCCTTCTCTCCTCCC (double strand) [BCCP-16g (-252)]”: binds. “TCTTCACTTGGAGGGTGTGATAATGGAGCCCATATGGGTGCTATACATGGTGACATGGCGAGGATGGAGCCCCCACACCCTCTCCAGCCTAACATGTTTTTCTCTATTAAATTGACGCACAAAAAGTCCAAAACCTTCATTGATTTCTCCGCCTAGTGTGTGCTCGTTTTAAACTTGATCTCCTTCATGATTTAATATCCCCTC (double strand) [βPDH-17g (-99)]”: binds. “TGTTACTTAACACGAGACAATAGGCTTTTAAATGTTTAATCCTGAACTAACCAATATCTTGTTCGCAAATACTTAAAATGGCCCAGTGTCCCAACCCAACCACCTTACTAATATGTCAAAAGTGCGTTAGTTTGGGGTTAGACCAACGAACTCGGATGGCATGGCCTATGATCTTGGGGCGATGTTTACACTGCACTCATTCCCTCGTCTTCTCCGCCTCACTCTGCAACTCCACTCTCTCTCTCTCTCTACAATTCACCCGTAACCTGCAACTCCAGTGTCATCCTCCCTAATTCAACCGAACGCT (double strand) [DHLAT-12g (-105)]”: binds. “TTGTTTAATATGGGCTCCATCCACACCATGTAAATTAAAAGGGGGCTCCATAGGTGAGGTGGATCCTAGGTGGACTTGATAAAGCCCCATGGGGCTCCATCCACACCTCATAGCCTTAGTGGGCCGTGGGCGTCATCGATTTGTGGGGTGTTTGGTGTTGCGTTTTCAAAATAGATTATGCGTTTTCAAAACTGCGTTTTGAAAAAGCATGTAAGTACATGCTTCTCCAAAACTGCGTTTTGAAGGCAGATAATCAC (double strand) [βPDH-17g (-464)]”: no binding. “TTTGGAGGAAAGGTTAGGTTGTAGAGAAGGTGGAGATGAGTGGTATATAACAATGGGAGCTTCGAGAGGTCCGCCGGAAGGGGGAAGAGTTAACAATGGCAAGGAGAATGACTGTTTGTTGGACTGTGGTCGTCACTGATTTTCCTCAGCGCTTGGGGGGAGTTCAGCAAGTTTCTTTTGGGCTCTTTTCTTGGGCTGATACATACTTGATATTTTGTAAGTTCCCTTTGGGCGTTTGTTACTATTTGCAC (double strand) [LPD-10g (-73)]”: binds.

Same assay, conditions: smear at maximal protein; 20 mM Tris-HCl pH 8.0, 250 mM NaCl, 2 mM MgCl2, 1% glycerol, 1 mM DTT, 1 mg/mL BSA, 30 min room temperature, gels at 4 °C; DIG EMSA plus 0.05 µg/µL polydIdC; recombinant protein; residues 51-229; protein details: N-terminal 6xHis-thioredoxin fusion; probe letters rebuilt from the primers and the genome
“GGGGTTAGTTAGGGTATATGGGAAAAATGTGGTCACACTGATTGACACTCCAACGCTTTTCAGCTTAGATTATATCGCCGATCAGTCGGAGCTTCCAAGACCAACACACAGTCTTCATATATCAATCACTTCAATTTCATTTACACAATTGCTCCTCTTCGTTACTCTCTCTCCTCATTTTCTCTCTCTAGAACGCTCATGGCTGCCGCAGCATCTGCTTCTTTCACCGGATCGGTTTTCAAATCCAACCGTATCTCAACTAACTCCGC (double strand) [KAR1-17g (-130)]”: binds more weakly.

Same assay, conditions: smear; 20 mM Tris-HCl pH 8.0, 250 mM NaCl, 2 mM MgCl2, 1% glycerol, 1 mM DTT, 1 mg/mL BSA, 30 min room temperature, gels at 4 °C; DIG EMSA plus 0.05 µg/µL polydIdC; recombinant protein; residues 51-229; protein details: N-terminal 6xHis-thioredoxin fusion; probe letters rebuilt from the primers and the genome
“TGTTATAAACCCTGTTTTGAATGCCAAAATTCTTTCGATACTTCCAAAGCTTTCCAACGGCCCTCACAAAGACCATCTCATCTCATCTCACTTTGTTTTAATCGAAACCTACCTGTCTTCTTCATCCCCACTTATACACTCACGCCCACAACAACAAAATAAACATCCTTCCTGTGATC (double strand) [ENR-17g (-699/-677/-644)]”: binds more weakly. “TTGAAGGTGGTGTGTATGAAGGTATAGATAGATATATATGAGTCGATGATTACAAATTTCGATCAAAACGATGAATGATGGTCTTTGTGAGGGCCGTTGGGAAGCTTTGGAAGTATCGAAAAGGAAACAGGTGAGGATTGGGTGAGAGTTTTGGGATTCAAAC (double strand) [ENR2-16g upstream boxes]”: binds more weakly.

Same assay, conditions: weak but visible shift; 20 mM Tris-HCl pH 8.0, 250 mM NaCl, 2 mM MgCl2, 1% glycerol, 1 mM DTT, 1 mg/mL BSA, 30 min room temperature, gels at 4 °C; DIG EMSA plus 0.05 µg/µL polydIdC; recombinant protein; residues 51-229; protein details: N-terminal 6xHis-thioredoxin fusion; probe letters rebuilt from the primers and the genome
“GGGGTTAGTTAGGGTATATGGGAAAAATGTGGTCACACTGATTGACACTCCAACGCTTTTCAGCTTCGATTATATCGCCGATCAGTCGGAGCTTCCAAGACCAACACACAGTCTTCATATATCAATCACTTCAATTTCATTTACACAATTGCTCCTCTTCGTTACTCTCTCTCCTCATTTTCTCTCTCTAGAACGCTCATGGCTGCCGCAGCATCTGCTTCTTTCACCGGATCGGTTTTCAAATCCAACCGTATCTCAACTAACTCCGC (double strand) [KAR1 mut A/C]”: binds more weakly.
